In paper PMC3646009 one finds binding data, which are given here for four molecules.

Amino acid sequences for entries named in this document (tags omitted). Residues count along the entry.
human nesprin-1 spectrin repeat 73 (NES1SR73) (Q8NF91, residues 8416-8552): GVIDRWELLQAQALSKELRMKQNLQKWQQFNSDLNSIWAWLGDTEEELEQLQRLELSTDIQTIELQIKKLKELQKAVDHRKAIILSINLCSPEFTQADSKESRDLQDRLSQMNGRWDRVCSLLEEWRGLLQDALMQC
human nesprin-1 spectrin repeat 74 (NES1SR74) (Q8NF91, residues 8554-8667): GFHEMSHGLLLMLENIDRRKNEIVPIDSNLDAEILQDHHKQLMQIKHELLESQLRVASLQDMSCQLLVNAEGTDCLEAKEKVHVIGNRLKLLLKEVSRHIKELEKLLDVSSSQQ

Results are given in words; binding and its absence hold for the method and conditions named.

Holding throughout (assay): NMR translational diffusion (double stimulated echo) + 1D NMR line widths; each repeat alone in solution; 298 K; 20 mM sodium phosphate pH 7.0, 50 mM sodium chloride, 2 mM dithiothreitol, 0.02% sodium azide; protein 40-200 µM; both purified
Test [1] addresses human nesprin-1 spectrin repeat 73 (NES1SR73) (human) (UniProt Q8NF91).
Test [2] concerns the target human nesprin-1 spectrin repeat 74 (NES1SR74) (human) (UniProt Q8NF91).
The target in test [3] is human nesprin-2 spectrin repeat 55 (NES2SR55) (human) (UniProt Q8WXH0).
The target of test [4] is human nesprin-2 spectrin repeat 56 (NES2SR56) (human) (UniProt Q8WXH0).

Regarding “human nesprin-1 spectrin repeat 73 (NES1SR73) (from UniProt Q8NF91 8416-8552) (domain or fragment)”, the binding result in test [1] is recorded as “no binding (tested: 40-200 µM)”.
As to “human nesprin-1 spectrin repeat 74 (NES1SR74) (from UniProt Q8NF91 8554-8667) (domain or fragment)”, in test [2], the binding result is “no binding (tested: 40-200 µM)”.

B1: human nesprin-2 spectrin repeat 55 (NES2SR55) (domain or fragment, UniProt Q8WXH0 6529-6664)
chain: SGAFDRWEMIQAQELHNKLKIKQNLQQLNSDISAITTWLKKTEAELEMLKMAKPPSDIQEIELRVKRLQEILKAFDTYKALVVSVNVSSKEFLQTESPESTELQSRLRQLSLLWEAAQGAVDSWRGGLRQSLMQCQ
For B1, in test [3], the binding entry was “no binding (tested: 40-200 µM)”.

B2: human nesprin-2 spectrin repeat 56 (NES2SR56) (domain or fragment, UniProt Q8WXH0 6665-6771)
chain: DFHQLSQNLLLWLASAKNRRQKAHVTDPKADPRALLECRRELMQLEKELVERQPQVDMLQEISNSLLIKGHGEDCIEAEEKVHVIEKKLKQLREQVSQDLMALQGTQ
With B2, the binding entry in test [4] is “no binding (tested: 40-200 µM)”.
